Patent US20200368361A1
Positions count from the first letter of the chain named. Names may count otherwise. These are yes or no findings as the source states them, for the method shown. Some binding calls cover weakened binding; strength is not graded here. For part of these data: Tags and fused reporters may be left off the sequences shown. Each block holds one binder with its values, some of them ahead of it.

Legend:
[1] = target: full length monkey MSR1 on HEK293.mfMSR1 cells (Macaca fascicularis); experiment: ECL cell binding (Meso Scale), 11 nM antibody, ratio to isotype control
[2] = target: T1, mouse MSR1 extracellular domain expressed with a N-terminal nonahistidine tag (mouse) (UniProt P30204); experiment: BLI (Octet HTX), antibody captured, 25 C
T1 sequence: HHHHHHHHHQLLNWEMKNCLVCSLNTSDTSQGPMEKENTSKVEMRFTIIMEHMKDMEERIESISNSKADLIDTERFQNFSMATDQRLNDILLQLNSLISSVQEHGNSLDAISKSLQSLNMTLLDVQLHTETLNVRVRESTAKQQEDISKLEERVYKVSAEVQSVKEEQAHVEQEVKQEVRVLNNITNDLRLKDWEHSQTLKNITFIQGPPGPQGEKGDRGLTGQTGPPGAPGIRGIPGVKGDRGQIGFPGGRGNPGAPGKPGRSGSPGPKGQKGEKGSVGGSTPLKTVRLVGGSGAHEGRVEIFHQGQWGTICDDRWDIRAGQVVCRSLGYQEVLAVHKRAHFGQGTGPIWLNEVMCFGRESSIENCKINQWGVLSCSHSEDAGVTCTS

[3] = target: full length monkey MSR1 on HEK293.mfMSR1 cells (Macaca fascicularis); experiment: ECL cell binding, HEK293.mfMSR1, 11 nM; heading of the table's group

binding [1]: binds
binding [2]: binds
binding [3]: binds
B1: H1H21234N-N297Q (antibody, human IgG1, V domains shown)
VH: QVQLQESGPGLVKPSETLSLTCTVTGGSISRNYWSWIRQPPGKGLEWIGYIYYSGSIDYNPSLKSRVTISVDTSKNQFSLKLSSMTAADTAVYYCARDRWNWKYGMDVWGQGTTVIVSS
VL: EIVLTQSPGTLSLSPGERATLSCRASQTVRNNYLAWYHQKPGQAPRLLIYGASSRATGIPDRFSGSGSGTDFTLTISRLEPEDFTVYYCHQYGNSPWTFGQGTKMEIKR

binding [1]: binds
binding [2]: binds
binding [3]: binds
B2: H1H21234N (antibody, human IgG1, V domains shown)
VH: B1 VH
VL: B1 VL

binding [1]: binds
binding [3]: binds
B3: H2aM25695N (antibody, mouse IgG2a, V domains shown)
VH: B1 VH with D58N, T73M, S83N, M85V
VL: B1 VL with N32S, T85A, H90Q, N94S, P96Y

binding [1]: binds
binding [3]: binds
B4: H1H27747P-N297Q (antibody, human IgG1, V domains shown)
VH: QVQLVESGGAVVQPGRSLRLSCAASGFTFSYYGMHWVRQAPGKGLEWVAVISYDGSKKYYADSVKGRFTISRDNSKNTLYLQMNSLRAEDTAVYYCAKDLTVDFYYGMDVWGQGTTVTVSS
VL: DIQMTQSPSSVSASVGDRVTITCRASQGISSWLAWYQQKPGKAPKLLIYATSSLQSGAPSRFSGSGSGTDFTLTISSLQPEDFATYFCQQANSFPYTFGQGTKLEIKR

binding [1]: binds
binding [3]: binds
B5: H1H27754P-N297Q (antibody, human IgG1, V domains shown)
VH: EVQLVESGGGLVQPGGSLRLSCAASGFTFRTYAMTWVRQAPGKGLDWVSAITGDGGNTYYADSVKGRFTISRDNSKNTLYLQMNSLRAEDTAIYYCAKDQRFSFALYYFDYWGQGTLVTVSS
VL: B4 VL with K42N, T51A, S52F, A58V, F87Y, S93N, Y96W, L104V

binding [1]: binds
binding [3]: binds
B6: H1H27739P-N297Q (antibody, human IgG1, V domains shown)
VH: EVQLVESGGGLVQPGGSLRLSCTASGFTFSSYAMSWVRQAPGKGLEWVSAISGTGSSTYFTDSVKGRFAISRDNSKNTLYLQMNSLRAEDTAVYYCAKDGEWLSTVTLFDYWGQGTLVTVSS
VL: EIVMTQSPATLSVSPGERATLSCRASQSVSSNLAWYQQKPGQAPRLLIYGASTRATGIPARFSGSGSGTDFTLTISSLQSEDFALYYCQQYFIWPPHPTFGPGTKVDIKR

binding [1]: binds
binding [3]: binds
B7: H1H27734P-N297Q (antibody, human IgG1, V domains shown)
VH: EVQLVESRGGLVQPGGSLRLSCAASGFTFSSYAMSWVRQAPGKGLEWVSAISGSGGSTFYADSVKGRFTISRDNSKNTVYLQMNSLRAEDTAVYYCAKALVLRFLEWLGDYWGQGTLVTVSS
VL: DIQMTQSPSTLSASVGDRVTITCRASQSISSWLAWFQQKPGKAPKLLIYKASSLESGVPSRFSGSGSGTEFTLTISSLQPDDFATYYCQQYKSYWTFGQGTKVEIKR

binding [1]: binds
binding [3]: binds
B8: H1H27729P-N297Q (antibody, human IgG1, V domains shown)
VH: QVQLVESGGGLVKPGGSLRLSCAASGFIFSDYYMSWIRQAPGKGLEWVSYISSSGTTIYGDSVKGRFTMSRDNAKNSLYLQMNSLRAEDTAVYYCARNYALFDYWGQGTLVTVSS
VL: DIQMTQSPSSLSASVGDRVTITCQASQDISKYLNWYQQKPGKAPKLLIYYTSNLETGVPSRFSGSGSGTDFTFTISSLQPEDIATYYCHQSDYLPFTFGPGTKVDIKR
